Experimental data reported in article PMC13480958.
No constants are given. Whether binding was seen depends on the method and setting. Binding seen in cells or lysates may run through a third protein. A result given as binding can be weak or reduced; the word gives no strength. Tags and fused reporters may be left off the sequences shown.

B1: Vg-Sd-binding:GFP:V5:6xHis (Vg amino acids 279-335) (domain or fragment, UniProt Q26366 279-335)
chain: GQAQYLSASCVVFTNYSGDTASQVDEHFSRALNYNNKDSKESSSPMSNRNFPPSFWN
B2: Vg-C:GFP:V5:6xHis (Vg amino acids 336-453) (domain or fragment, UniProt Q26366 336-453)
chain: SNYVHPIPAPTHHQVSDLYGTATDTGYATDPWVPHAAHYGSYAHAAHAHAAHAHAYHHNMAQYGSLLRLPQQYASHGSRLHHDQQTAHALEYSSYPTMAGLEAQVAQVQESSKDLYWF
B3: Vg-N:GFP:V5:6xHis (Vg amino acids 1-278) (domain or fragment, UniProt Q26366 1-278)
chain: MAVSCPEVMYGAYYPYLYGRAGTSRSFYQYERFNQDLYSSSGVNLAASSSASGSSHSPCSPILPPSVSANAAAAVAAAAHNSAAAAVAVAANQASSSGGIGGGGLGGLGGLGGGPASGLLGSNVVPGSSSVGSVGLGMSPVLSGAAGHSLHSSHRTHAHSLAHAHTHPHSHTHTHTHQTKEEDLIVPRSEAEARLVGSQQHQHHNESSCSSGPDSPRHAHSHSHPLHGGGGATGGPSSAGGTGSGGGDGGGTGAIPKNLPALETPMGSGGGGLAGSGQ
B4: Vg:V5:6xHis (Vestigial) (protein, UniProt Q26366 1-453)
chain: MAVSCPEVMYGAYYPYLYGRAGTSRSFYQYERFNQDLYSSSGVNLAASSSASGSSHSPCSPILPPSVSANAAAAVAAAAHNSAAAAVAVAANQASSSGGIGGGGLGGLGGLGGGPASGLLGSNVVPGSSSVGSVGLGMSPVLSGAAGHSLHSSHRTHAHSLAHAHTHPHSHTHTHTHQTKEEDLIVPRSEAEARLVGSQQHQHHNESSCSSGPDSPRHAHSHSHPLHGGGGATGGPSSAGGTGSGGGDGGGTGAIPKNLPALETPMGSGGGGLAGSGQGQAQYLSASCVVFTNYSGDTASQVDEHFSRALNYNNKDSKESSSPMSNRNFPPSFWNSNYVHPIPAPTHHQVSDLYGTATDTGYATDPWVPHAAHYGSYAHAAHAHAAHAHAYHHNMAQYGSLLRLPQQYASHGSRLHHDQQTAHALEYSSYPTMAGLEAQVAQVQESSKDLYWF

target: 3xFLAG:Atro (Atrophin) (Drosophila); experiment: co-IP; lysates (RIPA buffer) of S2 cells co-transfected with the two proteins; 3xFLAG:Atro precipitated with anti-FLAG (DYKDDDDK Fab-Trap) agarose beads, 1 h; western blot with anti-V5 or anti-Myc

Row | binding | Binder
1 | no binding | B1
2 | binds | B2
3 | binds weakly | B3
4 | binds | B4
